Reference: patent US20060003434A1
No constants are given. Whether binding was seen depends on the method and setting. In cells and extracts the contact can be indirect. Some binding calls cover weakened binding; strength is not graded here. Tags and fused reporters may be left off the sequences shown.

Columns and labels:
[1] = molecular target: T1, 3HaMus81, endonuclease-inactive version of Mus81 (AA) (human) (UniProt Q96NY9); assay: co-immunoprecipitation (Ha IP, FLAG blot), transfected cells
T1 sequence (looked up): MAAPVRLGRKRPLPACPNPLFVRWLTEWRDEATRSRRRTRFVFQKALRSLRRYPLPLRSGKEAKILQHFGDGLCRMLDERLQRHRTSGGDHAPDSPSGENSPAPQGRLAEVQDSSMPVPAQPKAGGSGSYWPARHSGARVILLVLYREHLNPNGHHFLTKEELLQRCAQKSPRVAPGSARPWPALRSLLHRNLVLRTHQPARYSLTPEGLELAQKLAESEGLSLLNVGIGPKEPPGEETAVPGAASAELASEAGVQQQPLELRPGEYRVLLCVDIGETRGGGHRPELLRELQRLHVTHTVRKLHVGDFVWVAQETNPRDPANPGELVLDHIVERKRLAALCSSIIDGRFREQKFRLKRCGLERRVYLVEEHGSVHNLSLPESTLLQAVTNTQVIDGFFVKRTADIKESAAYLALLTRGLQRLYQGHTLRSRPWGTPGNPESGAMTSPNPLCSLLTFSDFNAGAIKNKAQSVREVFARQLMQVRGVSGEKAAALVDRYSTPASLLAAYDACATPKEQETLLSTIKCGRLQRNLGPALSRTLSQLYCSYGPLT

[2] = molecular target: T1, 3HaMus81, endonuclease-inactive version of Mus81 (AA) (human); assay: co-immunoprecipitation (Ha IP, FLAG blot), transfected cells, FIG. 13C
[3] = molecular target: T2, FLAG-Eme1 (human Eme1 FLAG tagged at the C terminus; form A, B or C not stated at these places) (human) (UniProt Q96AY2); assay: co-immunoprecipitation (anti-FLAG IP, Ha blot), self-association of Eme1, transfected 293 cells
T2 sequence (looked up): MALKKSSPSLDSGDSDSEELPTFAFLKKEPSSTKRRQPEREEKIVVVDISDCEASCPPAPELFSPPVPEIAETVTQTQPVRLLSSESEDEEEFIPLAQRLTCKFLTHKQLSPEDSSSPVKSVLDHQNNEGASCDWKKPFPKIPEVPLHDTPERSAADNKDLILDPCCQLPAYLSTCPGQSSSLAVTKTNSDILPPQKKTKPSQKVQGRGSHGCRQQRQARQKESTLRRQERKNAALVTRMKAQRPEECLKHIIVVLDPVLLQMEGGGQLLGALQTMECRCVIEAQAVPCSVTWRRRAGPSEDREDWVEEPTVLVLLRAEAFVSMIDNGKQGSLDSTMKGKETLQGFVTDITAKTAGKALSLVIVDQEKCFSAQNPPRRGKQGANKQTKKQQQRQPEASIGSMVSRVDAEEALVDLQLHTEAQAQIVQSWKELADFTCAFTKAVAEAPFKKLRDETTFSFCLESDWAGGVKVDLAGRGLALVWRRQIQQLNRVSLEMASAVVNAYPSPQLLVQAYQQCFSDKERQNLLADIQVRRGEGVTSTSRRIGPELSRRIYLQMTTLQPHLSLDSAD

[4] = molecular target: T2, FLAG-Eme1 (human Eme1 FLAG tagged at the C terminus; form A, B or C not stated at these places) (human); assay: co-immunoprecipitation (anti-FLAG IP, Ha blot), transfected 293 cells, FIG. 15B

B1: FLAG-Heme1B (human Eme1B, FLAG tagged at the C terminus) (protein, not shown: small tags and cut ends)
chain: MALKKSSPSLDSGDSDSEELPTFAFLKKEPSSTKRRQPEREEKIVVVDISDCEASCPPAPELFSPPVPDIAETVTQTQPVRLLSSESEDEEEFIPLAQRLTCKFLTHKQLSPEDSSSPVKSVLDHQNNEGASCDWKKQPFPKIPEVPLHDTPERSAADNKDLILDPCCQLPAYLSTCPGQSSSLAVTKTNSDILPPQKKTKPSQKVQGRGSHGCRQQRQARQKESTLRRQERKNAALVTRMKAQRPEECLKHIIVVLDPVLLQMEGGGQLLGALQTMECRCVIEAQAVPCSVTWRRRAGPSEDREDWVEEPTVLVLLRAEAFVSMIDNGKQGSLDSTMKGKETLQGFVTDITAKTAGKALSLVIVDQEKCFSAQNPPRRGKQGANKQTKKQQQRQPEASIGSMVSRVDAEEALVDLQLHTEAQAQIVQSWKELADFTCAFTKAVAEAPFKKLRDETTFSFCLESDWAGGVKVDLAGRGLALVWRRQIQQLNRVSLEMASAVVNAYPSPQLLVQAYQQCFSDKERQNLLADIQVRRGEGVTSTSRRIGPELSRRIYLQMTTLQPHLSLDSAD
binding [1]: binds | binding [2]: binds

B2: 3HaEme1 (Heme1B cloned into pcDNA-3Ha) (protein, not shown: small tags and cut ends)
chain: B1 chain
binding [3]: binds | binding [4]: binds
